Laboratory results: patent US20210324417A1 (RESEARCH INSTITUTE AT NATIONWIDE CHILDREN S HOSPITAL, published 2021)
These are yes or no findings as the source states them, for the method shown. Binding seen in cells or lysates may run through a third protein. Some binding calls cover weakened binding; strength is not graded here. Tags and fused reporters may be left off the sequences shown.

Molecular target: neuropilin-1 (NRP1) (mouse (endogenous protein of the mouse cell lines NSC-34 and MN1; species of NRP1 itself not stated)) (UniProt P97333)
Assay: co-immunoprecipitation with anti-NRP1 antibody from NSC-34 lysates, anti-V5 Western blot

binding: binds
B1: V5-tagged P234KY human GARS (enzyme, UniProt P41250-2 1-685, looked up, not shown: small tags and cut ends)
chain: MDGAGAEEVLAPLRLAVRQQGDLVRKLKEDKAPQVDVDKAVAELKARKRVLEAKELALQPKDDIVDRAKMEDTLKRRFFYDQAFAIYGGVSGLYDFGPVGCALKNNIIQTWRQHFIQEEQILEIDCTMLTPEPVLKTSGHVDKFADFMVKDVKNGECFRADHLLKAHLQKLMSDKKCSVEKKSEMESVLAQLDNYGQQELADLFVNYNVKSPITGNDLSPPVSFNLMFKTFIGKYGGNMPGYLRPETAQGIFLNFKRLLEFNQGKLPFAAAQIGNSFRNEISPRSGLIRVREFTMAEIEHFVDPSEKDHPKFQNVADLHLYLYSAKAQVSGQSARKMRLGDAVEQGVINNTVLGYFIGRIYLYLTKVGISPDKLRFRQHMENEMAHYACDCWDAESKTSYGWIEIVGCADRSCYDLSCHARATKVPLVAEKPLKEPKTVNVVQFEPSKGAIGKAYKKDAKLVMEYLAICDECYITEMEMLLNEKGEFTIETEGKTFQLTKDMINVKRFQKTLYVEEVVPNVIEPSFGLGRIMYTVFEHTFHVREGDEQRTFFSFPAVVAPFKCSVLPLSQNQEFMPFVKELSEALTRHGVSHKVDDSSGSIGRRYARTDEIGVAFGVTIDFDTVNKTPHTATLRDRDSMRQIRAEISELPSIVQDLANGNITWADVEARYPLFEGQETGKKETIEE
